Test results: the supplement of paper PMC10849652
This is one part of the list.

Sequences of proteins named here, by UniProt entry; tags and fusion partners are left off. A change or cut given only in a name is not applied to a line headed by its entry.
UniProt P15531, whole entry, looked up: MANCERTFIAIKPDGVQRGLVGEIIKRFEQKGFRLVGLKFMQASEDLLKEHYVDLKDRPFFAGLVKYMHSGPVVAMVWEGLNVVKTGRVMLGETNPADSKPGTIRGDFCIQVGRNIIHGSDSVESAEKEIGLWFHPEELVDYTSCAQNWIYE
UniProt P0C024: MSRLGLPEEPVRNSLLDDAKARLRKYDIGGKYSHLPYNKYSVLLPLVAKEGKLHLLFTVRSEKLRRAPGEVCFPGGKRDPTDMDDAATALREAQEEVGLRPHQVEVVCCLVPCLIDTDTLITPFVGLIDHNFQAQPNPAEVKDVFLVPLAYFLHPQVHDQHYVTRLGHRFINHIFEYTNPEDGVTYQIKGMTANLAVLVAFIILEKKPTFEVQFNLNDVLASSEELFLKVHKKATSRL
UniProt Q8WV74: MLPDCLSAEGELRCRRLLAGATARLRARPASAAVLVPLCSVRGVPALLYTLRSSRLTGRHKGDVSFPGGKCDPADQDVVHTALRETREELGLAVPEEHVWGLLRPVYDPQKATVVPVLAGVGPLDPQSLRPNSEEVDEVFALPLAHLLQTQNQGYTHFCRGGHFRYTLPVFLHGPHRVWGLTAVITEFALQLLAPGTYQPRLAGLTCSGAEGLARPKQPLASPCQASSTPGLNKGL
UniProt Q96CB9: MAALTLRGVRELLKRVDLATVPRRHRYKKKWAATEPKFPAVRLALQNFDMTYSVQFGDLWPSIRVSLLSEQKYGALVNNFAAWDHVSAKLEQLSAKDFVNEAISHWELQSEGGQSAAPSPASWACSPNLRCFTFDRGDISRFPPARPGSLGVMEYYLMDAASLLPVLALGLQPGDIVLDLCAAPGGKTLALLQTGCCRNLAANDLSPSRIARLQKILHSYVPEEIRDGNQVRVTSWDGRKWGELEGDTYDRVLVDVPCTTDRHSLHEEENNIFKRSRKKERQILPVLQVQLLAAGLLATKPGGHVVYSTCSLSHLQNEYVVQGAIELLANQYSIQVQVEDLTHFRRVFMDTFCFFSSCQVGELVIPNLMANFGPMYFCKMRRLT
UniProt P16083: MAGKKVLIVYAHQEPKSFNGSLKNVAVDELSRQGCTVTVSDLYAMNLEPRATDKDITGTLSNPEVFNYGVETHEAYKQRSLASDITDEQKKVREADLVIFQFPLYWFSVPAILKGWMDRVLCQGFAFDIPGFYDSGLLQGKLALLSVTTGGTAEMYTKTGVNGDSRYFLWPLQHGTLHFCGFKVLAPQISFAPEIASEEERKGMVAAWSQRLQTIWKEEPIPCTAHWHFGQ
UniProt Q8NE18: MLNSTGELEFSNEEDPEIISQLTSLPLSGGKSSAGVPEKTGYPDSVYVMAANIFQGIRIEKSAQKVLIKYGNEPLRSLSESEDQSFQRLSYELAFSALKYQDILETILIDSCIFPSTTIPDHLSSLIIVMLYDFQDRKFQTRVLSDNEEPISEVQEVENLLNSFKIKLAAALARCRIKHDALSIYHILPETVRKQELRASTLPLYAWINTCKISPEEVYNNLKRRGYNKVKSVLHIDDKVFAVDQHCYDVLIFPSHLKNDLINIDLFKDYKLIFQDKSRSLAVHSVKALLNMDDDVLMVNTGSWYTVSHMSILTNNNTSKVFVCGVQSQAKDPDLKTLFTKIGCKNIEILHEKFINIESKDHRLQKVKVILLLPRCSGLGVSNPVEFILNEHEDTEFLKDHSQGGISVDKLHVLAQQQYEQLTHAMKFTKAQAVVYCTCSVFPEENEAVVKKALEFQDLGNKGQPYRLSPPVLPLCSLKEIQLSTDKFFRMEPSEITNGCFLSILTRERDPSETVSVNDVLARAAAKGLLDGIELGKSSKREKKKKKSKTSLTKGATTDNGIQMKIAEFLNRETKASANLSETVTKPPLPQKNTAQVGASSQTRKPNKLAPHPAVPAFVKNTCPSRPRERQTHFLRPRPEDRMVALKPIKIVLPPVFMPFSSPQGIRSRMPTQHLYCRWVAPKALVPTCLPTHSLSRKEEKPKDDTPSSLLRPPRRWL
UniProt O60361, whole entry, looked up: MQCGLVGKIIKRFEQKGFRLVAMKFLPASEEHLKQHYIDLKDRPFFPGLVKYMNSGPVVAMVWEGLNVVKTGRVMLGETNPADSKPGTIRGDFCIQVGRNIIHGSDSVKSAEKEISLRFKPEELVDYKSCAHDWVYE
UniProt O95848: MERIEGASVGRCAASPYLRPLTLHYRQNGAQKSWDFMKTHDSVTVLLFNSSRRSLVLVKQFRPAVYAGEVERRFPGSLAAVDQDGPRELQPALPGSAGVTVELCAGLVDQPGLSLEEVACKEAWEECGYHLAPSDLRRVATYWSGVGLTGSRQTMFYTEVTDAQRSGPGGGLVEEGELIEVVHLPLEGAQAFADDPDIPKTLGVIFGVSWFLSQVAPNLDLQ
UniProt Q9UK39: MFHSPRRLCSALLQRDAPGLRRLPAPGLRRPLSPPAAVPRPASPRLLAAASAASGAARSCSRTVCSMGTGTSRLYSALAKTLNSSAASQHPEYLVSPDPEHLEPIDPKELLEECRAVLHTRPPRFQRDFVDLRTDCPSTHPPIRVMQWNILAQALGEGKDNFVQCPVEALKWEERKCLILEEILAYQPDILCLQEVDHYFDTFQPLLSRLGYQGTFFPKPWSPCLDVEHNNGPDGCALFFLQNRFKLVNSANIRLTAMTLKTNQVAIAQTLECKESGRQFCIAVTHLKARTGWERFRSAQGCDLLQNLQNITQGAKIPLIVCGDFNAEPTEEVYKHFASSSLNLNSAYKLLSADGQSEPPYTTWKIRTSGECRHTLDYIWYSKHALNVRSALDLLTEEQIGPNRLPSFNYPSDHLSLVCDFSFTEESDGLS
UniProt Q92636: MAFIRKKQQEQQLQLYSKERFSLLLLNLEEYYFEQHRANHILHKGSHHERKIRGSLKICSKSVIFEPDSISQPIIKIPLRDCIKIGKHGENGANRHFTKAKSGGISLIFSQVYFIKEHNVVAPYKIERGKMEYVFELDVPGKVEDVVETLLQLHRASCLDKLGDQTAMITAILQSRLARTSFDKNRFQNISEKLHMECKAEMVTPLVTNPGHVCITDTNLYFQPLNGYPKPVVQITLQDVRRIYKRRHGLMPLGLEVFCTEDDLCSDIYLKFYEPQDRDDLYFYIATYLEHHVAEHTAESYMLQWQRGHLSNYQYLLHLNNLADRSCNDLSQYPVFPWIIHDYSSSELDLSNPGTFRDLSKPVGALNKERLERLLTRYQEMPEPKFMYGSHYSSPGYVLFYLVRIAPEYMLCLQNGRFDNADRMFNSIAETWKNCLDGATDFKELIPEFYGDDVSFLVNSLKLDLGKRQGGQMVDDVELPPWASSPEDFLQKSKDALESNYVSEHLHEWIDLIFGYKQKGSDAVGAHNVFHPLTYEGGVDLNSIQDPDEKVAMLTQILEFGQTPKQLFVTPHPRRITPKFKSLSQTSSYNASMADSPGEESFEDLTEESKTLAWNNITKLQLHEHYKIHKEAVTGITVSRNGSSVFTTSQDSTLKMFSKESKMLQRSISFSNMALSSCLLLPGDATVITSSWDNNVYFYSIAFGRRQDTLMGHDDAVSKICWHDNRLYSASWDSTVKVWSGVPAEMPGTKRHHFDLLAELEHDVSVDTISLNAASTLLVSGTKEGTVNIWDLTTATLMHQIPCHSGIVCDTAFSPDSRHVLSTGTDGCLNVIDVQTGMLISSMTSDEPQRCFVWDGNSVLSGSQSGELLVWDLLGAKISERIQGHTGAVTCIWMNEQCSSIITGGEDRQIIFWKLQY
UniProt Q15155: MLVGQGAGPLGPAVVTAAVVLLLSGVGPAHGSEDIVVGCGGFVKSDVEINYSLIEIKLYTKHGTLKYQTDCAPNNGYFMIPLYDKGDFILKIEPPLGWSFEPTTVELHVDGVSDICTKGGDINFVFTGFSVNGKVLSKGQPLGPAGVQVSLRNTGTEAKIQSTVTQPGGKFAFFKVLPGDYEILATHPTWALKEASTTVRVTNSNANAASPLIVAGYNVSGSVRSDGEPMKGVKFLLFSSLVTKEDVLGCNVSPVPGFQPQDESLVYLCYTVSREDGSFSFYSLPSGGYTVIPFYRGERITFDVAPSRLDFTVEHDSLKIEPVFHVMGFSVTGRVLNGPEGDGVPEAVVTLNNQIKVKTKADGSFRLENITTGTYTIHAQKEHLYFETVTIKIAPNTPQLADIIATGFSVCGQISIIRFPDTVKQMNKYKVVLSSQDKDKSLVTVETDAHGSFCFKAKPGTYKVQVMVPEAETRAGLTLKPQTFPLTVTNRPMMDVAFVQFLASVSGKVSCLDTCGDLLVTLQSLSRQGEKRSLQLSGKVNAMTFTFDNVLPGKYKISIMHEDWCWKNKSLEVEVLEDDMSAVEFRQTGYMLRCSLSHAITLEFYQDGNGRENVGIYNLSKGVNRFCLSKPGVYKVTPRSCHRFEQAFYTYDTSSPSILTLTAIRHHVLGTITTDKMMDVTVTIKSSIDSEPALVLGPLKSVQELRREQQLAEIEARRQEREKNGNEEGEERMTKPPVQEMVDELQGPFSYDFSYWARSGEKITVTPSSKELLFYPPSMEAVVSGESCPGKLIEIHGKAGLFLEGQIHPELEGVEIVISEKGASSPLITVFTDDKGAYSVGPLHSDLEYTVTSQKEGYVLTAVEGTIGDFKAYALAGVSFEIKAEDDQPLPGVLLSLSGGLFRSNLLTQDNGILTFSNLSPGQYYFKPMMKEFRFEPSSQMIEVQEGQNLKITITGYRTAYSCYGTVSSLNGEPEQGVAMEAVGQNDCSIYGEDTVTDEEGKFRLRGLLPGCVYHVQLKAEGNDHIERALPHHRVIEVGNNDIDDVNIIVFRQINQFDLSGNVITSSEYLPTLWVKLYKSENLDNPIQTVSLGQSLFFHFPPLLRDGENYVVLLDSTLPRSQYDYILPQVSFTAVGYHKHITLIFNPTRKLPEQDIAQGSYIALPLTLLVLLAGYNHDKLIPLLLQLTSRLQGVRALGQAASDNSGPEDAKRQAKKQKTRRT
UniProt Q14978: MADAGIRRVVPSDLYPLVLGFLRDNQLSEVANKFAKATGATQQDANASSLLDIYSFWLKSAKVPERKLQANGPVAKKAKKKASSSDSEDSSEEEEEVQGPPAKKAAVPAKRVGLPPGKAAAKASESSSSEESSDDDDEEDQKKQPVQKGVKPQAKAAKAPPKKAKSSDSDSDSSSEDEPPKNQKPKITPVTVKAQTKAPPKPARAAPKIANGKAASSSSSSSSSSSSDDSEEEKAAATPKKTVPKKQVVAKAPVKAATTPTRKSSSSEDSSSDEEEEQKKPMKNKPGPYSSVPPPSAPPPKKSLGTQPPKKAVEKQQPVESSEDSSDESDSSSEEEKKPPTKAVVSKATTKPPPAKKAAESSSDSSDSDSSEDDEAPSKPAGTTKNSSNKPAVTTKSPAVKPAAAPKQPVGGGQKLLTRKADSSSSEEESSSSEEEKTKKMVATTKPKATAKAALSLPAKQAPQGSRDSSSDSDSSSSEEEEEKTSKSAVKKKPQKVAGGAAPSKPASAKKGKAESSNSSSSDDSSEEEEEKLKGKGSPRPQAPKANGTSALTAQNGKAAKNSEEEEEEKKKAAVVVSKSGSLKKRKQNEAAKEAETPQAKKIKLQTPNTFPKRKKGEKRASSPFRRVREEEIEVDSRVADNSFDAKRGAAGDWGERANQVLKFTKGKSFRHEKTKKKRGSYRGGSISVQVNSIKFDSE
UniProt P13056: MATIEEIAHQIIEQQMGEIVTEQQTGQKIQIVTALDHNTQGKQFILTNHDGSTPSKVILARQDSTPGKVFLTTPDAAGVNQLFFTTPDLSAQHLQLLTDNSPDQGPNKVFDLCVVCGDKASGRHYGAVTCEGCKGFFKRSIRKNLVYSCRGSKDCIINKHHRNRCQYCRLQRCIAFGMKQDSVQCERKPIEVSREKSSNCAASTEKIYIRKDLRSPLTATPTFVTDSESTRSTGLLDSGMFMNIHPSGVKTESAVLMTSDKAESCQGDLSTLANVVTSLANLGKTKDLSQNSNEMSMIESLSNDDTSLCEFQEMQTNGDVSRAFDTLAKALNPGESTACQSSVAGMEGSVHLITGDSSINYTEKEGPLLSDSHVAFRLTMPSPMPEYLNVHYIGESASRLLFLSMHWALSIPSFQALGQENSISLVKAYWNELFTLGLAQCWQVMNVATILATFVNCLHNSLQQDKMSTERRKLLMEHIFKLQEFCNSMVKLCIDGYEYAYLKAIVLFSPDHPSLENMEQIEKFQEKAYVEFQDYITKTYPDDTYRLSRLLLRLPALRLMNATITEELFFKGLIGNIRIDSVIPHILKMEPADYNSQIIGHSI
UniProt Q96AB6: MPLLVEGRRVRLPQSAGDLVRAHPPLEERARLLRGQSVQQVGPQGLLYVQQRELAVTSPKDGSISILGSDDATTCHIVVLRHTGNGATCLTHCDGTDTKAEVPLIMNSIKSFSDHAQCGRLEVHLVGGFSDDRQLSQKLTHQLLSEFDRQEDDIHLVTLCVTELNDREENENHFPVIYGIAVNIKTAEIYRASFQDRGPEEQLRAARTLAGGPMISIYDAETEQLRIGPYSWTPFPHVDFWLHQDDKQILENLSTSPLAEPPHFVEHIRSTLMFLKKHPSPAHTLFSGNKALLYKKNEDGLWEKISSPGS

Assays:
Assay in all cases: log2 fold change, soluble protein after heating vs DMSO (PISA); higher = thermal stabilisation; K562 lysate, 10 uM; active = over 0.2 and 3.5 SD of the protein, either way, in both replicates (recomputed)
[1] = compound: CS(=O)(=O)CCNCc1ccc(-c2ccc3ncnc(Nc4ccc(OCc5cccc(F)c5)c(Cl)c4)c3c2)o1 [lapatinib]
Outline: (§1)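 A 30 min treatment with 10 μM compound was applied to crude K562 extract at 1 mg/mL protein in PBS pH 7.4 with 1 mM MgCl2. Heating for 3 min spanned 48°C-58°C, after which aliquots were pooled, adjusted to 0.5% NP-40 at 4°C and spun at 21,000xg for 90 min. TMTpro 16plex LC-MS/MS of the supernatant, with channel sums equalised, gave values recorded as log-two fold change in thermal stability against solvent controls, from duplicates.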

[2] = compound: CS(=O)(=O)N1CCN(Cc2cc3nc(-c4cccc5[nH]ncc45)nc(N4CCOCC4)c3s2)CC1 [pictilisib]
Outline: as §1

[3] = compound: C[C@@H](Oc1cc(-c2cnn(C3CCNCC3)c2)cnc1N)c1c(Cl)ccc(F)c1Cl [crizotinib]
Outline: as §1

[4] = compound: C[C@H](C1=CC=C(C=C1)C(=O)NC2=C3C=CNC3=NC=C2)N
Outline: as §1

[5] = compound: C[C@H](Nc1ncnc2nc[nH]c12)c1cc2cccc(Cl)c2c(=O)n1-c1ccccc1 [duvelisib]
Outline: as §1

[6] = compound: Cc1cc(Nc2cc(CN3CCOCC3)c3nc(C)c(Cc4ccc(Cl)cc4F)n3n2)n[nH]1 [gandotinib]
Outline: as §1

[7] = compound: Cc1cc(Nc2cc(N3CCN(C)CC3)nc(Sc3ccc(NC(=O)C4CC4)cc3)n2)n[nH]1 [tozasertib]
Outline: as §1

[8] = compound: Cc1ccc(-n2nc(C(C)(C)C)cc2NC(=O)Nc2ccc(OCCN3CCOCC3)c3ccccc23)cc1 [doramapimod]
Outline: as §1

[9] = compound: Cc1ccc(NC(=O)c2ccc(CN3CC[C@H](N(C)C)C3)c(C(F)(F)F)c2)cc1Nc1nccc(-c2cncnc2)n1 [bafetinib]
Outline: as §1

[10] = compound: Cc1cccc(CC(=O)N2CCc3c2ccc(-c2cn(C)c4ncnc(N)c24)c3F)n1
Outline: as §1

[11] = compound: Cc1nc(Nc2ncc(C(=O)Nc3c(C)cccc3Cl)s2)cc(N2CCN(CCO)CC2)n1 [dasatinib]
Outline: as §1

[12] = compound: Cn1cc(-c2ccc3c(c2)CCN3C(=O)Cc2cccc(C(F)(F)F)c2)c2c(N)ncnc21
Outline: as §1

[13] = compound: Cn1cc(CNCC2CCN(c3ncc(C(=O)NO)cn3)CC2)c2ccccc21 [quisinostat]
Outline: as §1

[14] = compound: NC(=O)Nc1cc(-c2cccc(F)c2)sc1C(=O)N[C@H]1CCCNC1
Outline: as §1

[15] = compound: NC(=O)c1cnc(N[C@@H]2CCCC[C@@H]2N)nc1Nc1cccc(-n2nccn2)c1
Outline: as §1

[16] = compound: NC1(c2ccc(-c3nc4ccn5c(=O)[nH]nc5c4cc3-c3ccccc3)cc2)CCC1
Outline: as §1

[17] = compound: Cc1cn(-c2cc(NC(=O)c3ccc(C)c(Nc4nccc(-c5cccnc5)n4)c3)cc(C(F)(F)F)c2)cn1 [nilotinib]
Outline: as §1

[18] = compound: Cc1nc(Nc2n[nH]c3c2CN(C(=O)N[C@H](CN(C)C)c2ccccc2)C3(C)C)c2sccc2n1
Outline: as §1

[19] = compound: Cc1ncc(-c2ccnc(Nc3ccc(S(C)(=O)=O)cc3)n2)n1C(C)C
Outline: as §1

[20] = compound: Cn1cncc1[C@@](N)(c1ccc(Cl)cc1)c1ccc2c(c1)c(-c1cccc(Cl)c1)cc(=O)n2C [tipifarnib]
Outline: as §1

Measured: log2 fold change

NME1 isoform 2 (UniProt P15531)
inactive: [1] 0.053 | [2] 0.039 | [3] 0.044 | [4] -0.151 | [5] 0.098 | [6] 0.108 | [7] -0.075 | [8] -0.095 | [9] 0.059 | [10] -0.128 | [11] 0.023 | [12] -0.02 | [13] 0.098 | [14] 0 | [15] -0.053 | [16] 0.06

NUDT7 (UniProt P0C024)
inactive: [1] -0.038 | [2] -0.068 | [3] -0.08 | [4] 0.116 | [5] -0.012 | [6] -0.115 | [7] -0.034 | [8] -0.015 | [9] 0.014 | [10] 0.095 | [11] -0.087 | [12] -0.003 | [13] 0.012 | [14] -0.004 | [15] 0.109 | [16] -0.012

NUDT8 (UniProt Q8WV74)
inactive: [1] 0.136 | [3] 0.015 | [4] -0.215 | [5] 0.029 | [6] 0.07 | [7] 0.149 | [8] 0.033 | [10] 0.07 | [17] -0.038 | [18] 0.288 | [11] 0.108 | [19] -0.087 | [12] -0.054 | [13] -0.294 | [20] -0.136 | [14] 0.009 | [15] 0.022 | [16] 0.037

NSUN4 (UniProt Q96CB9)
inactive: [1] 0.362 | [2] 0.215 | [3] -0.049 | [5] 0.057 | [8] 0.035 | [9] -0.026 | [17] 0.022 | [18] -0.018 | [11] -0.029 | [19] -0.059 | [12] -0.083 | [13] 0.019 | [20] 0.132 | [14] 0.03 | [15] -0.082 | [16] 0.018

NQO2 (UniProt P16083)
inactive: [1] 0.026 | [2] -0.023 | [3] 0.091 | [4] 0.007 | [5] -0.009 | [6] 0.01 | [7] 0.012 | [8] 0.022 | [9] 0.017 | [10] -0.008 | [17] 0.01 | [18] 0 | [11] 0.048 | [19] 0.006 | [12] -0.01 | [13] 0.064 | [20] 0.014 | [14] -0.037 | [15] -0.012 | [16] -0.001

NUDT1 (UniProt P36639)
inactive: [1] -0.009 | [2] 0.029 | [4] -0.019 | [5] 0.05 | [6] 0.035 | [7] 0.024 | [8] -0.028 | [9] 0.05 | [10] -0.02 | [17] -0.034 | [18] 0.011 | [11] 0.034 | [19] -0.01 | [12] -0.004 | [13] -0.011 | [20] -0.014 | [14] -0.002 | [15] -0.001 | [16] 0.014

NSUN7 (UniProt Q8NE18)
active: [13] -0.573
inactive: [1] -0.094 | [2] -0.001 | [3] -0.374 | [4] -0.039 | [6] 0.022 | [7] 0.152 | [8] 0.045 | [9] 0.285 | [10] 0.125 | [14] 0.01 | [15] 0.009 | [16] -0.031

NME2P1 (UniProt O60361)
inactive: [1] -0.018 | [2] 0.079 | [3] -0.427 | [4] -0.354 | [5] 0.05 | [6] 0.125 | [8] 0.16 | [9] -0.229 | [10] 0.238 | [17] -0.121 | [18] -0.037 | [11] -0.016 | [19] -0.09 | [12] 0.039 | [13] -0.629 | [20] -0.076 | [14] 0.07 | [15] 0.125 | [16] 0.008

NUDT14 (UniProt O95848)
inactive: [1] 0.012 | [2] 0.08 | [3] 0.025 | [4] -0.065 | [5] -0.028 | [6] 0.139 | [8] -0.051 | [9] 0.035 | [10] 0.076 | [11] 0.124 | [12] -0.035 | [13] -0.131 | [14] 0.06 | [15] -0.062 | [16] 0.315

NOCT (UniProt Q9UK39)
inactive: [1] -0.025 | [3] 0.024 | [5] 0.039 | [7] 0.111 | [8] 0.063 | [17] -0.045 | [18] 0.011 | [11] 0.013 | [19] -0.084 | [12] 0.017 | [13] 0 | [20] 0.061 | [14] 0.043 | [15] 0.004 | [16] -0.014

NSMAF (UniProt Q92636)
inactive: [1] 0.019 | [2] -0.053 | [3] -0.102 | [4] -0.05 | [5] 0.057 | [6] -0.017 | [7] 0.021 | [8] 0.023 | [9] -0.02 | [10] -0.001 | [17] -0.003 | [18] -0.021 | [11] -0.059 | [19] 0.006 | [12] -0.061 | [13] -0.138 | [20] -0.003 | [14] 0.027 | [15] -0.02 | [16] 0.01

NOMO1 (UniProt Q15155)
inactive: [1] 0.005 | [2] -0.004 | [3] -0.077 | [4] 0.314 | [5] 0.057 | [6] -0.158 | [7] -0.302 | [8] -0.06 | [9] 0.014 | [10] -0.321 | [17] 0.084 | [18] -0.058 | [11] -0.161 | [19] -0.04 | [12] -0.02 | [13] 0.011 | [20] 0.224 | [14] -0.055 | [15] 0.028 | [16] 0.007

Random excerpt: two records from the list, in no set order.
NOMO1 (UniProt Q15155)
inactive: [1] 0.005 | [2] -0.004 | [3] -0.077 | [4] 0.314 | [5] 0.057 | [6] -0.158 | [7] -0.302 | [8] -0.06 | [9] 0.014 | [10] -0.321 | [17] 0.084 | [18] -0.058 | [11] -0.161 | [19] -0.04 | [12] -0.02 | [13] 0.011 | [20] 0.224 | [14] -0.055 | [15] 0.028 | [16] 0.007

NUDT14 (UniProt O95848)
inactive: [1] 0.012 | [2] 0.08 | [3] 0.025 | [4] -0.065 | [5] -0.028 | [6] 0.139 | [8] -0.051 | [9] 0.035 | [10] 0.076 | [11] 0.124 | [12] -0.035 | [13] -0.131 | [14] 0.06 | [15] -0.062 | [16] 0.315

Further results

NPL (UniProt Q9BXD5)
inactive: [1] 0.001 | [2] -0.043 | [4] -0.305 | [5] 0.123 | [6] 0.136 | [7] -0.023 | [9] -0.038 | [10] 0.222 | [17] -0.021 | [18] -0.03 | [11] 0.118 | [19] -0.094 | [12] 0.019 | [20] -0.234 | [15] 0.047 | [16] 0

NOLC1 isoform 3 (UniProt Q14978)
inactive: [1] 0.005 | [2] 0.06 | [3] -0.083 | [4] -0.053 | [5] 0.191 | [6] 0.133 | [7] -0.022 | [8] -0.062 | [9] -0.092 | [10] 0.022 | [11] -0.052 | [12] -0.012 | [13] 0.135 | [14] 0.032 | [15] 0.034 | [16] 0.103

NR2F2 (UniProt P24468)
inactive: [1] 0.06 | [2] 0.072 | [3] -0.022 | [4] -0.163 | [5] -0.046 | [6] -0.153 | [8] -0.005 | [9] 0.037 | [10] -0.023 | [17] -0.063 | [18] 0.107 | [11] -0.027 | [19] -0.125 | [12] -0.006 | [13] -0.024 | [20] 0.034 | [14] 0.125 | [15] 0.024 | [16] 0.029

NSDHL (UniProt C9JDR0)
inactive: [1] 0.168 | [17] -0.177 | [18] 0.165 | [19] 0.056 | [20] 0.006 | [15] 0.048

NUDT5 (UniProt C9JYY9)
inactive: [7] 0.004 | [17] -0.049 | [18] 0.02 | [19] 0.228 | [20] -0.068 | [16] -0.119

NUMB isoform 2 (UniProt P49757)
inactive: [5] 0.023 | [17] -0.293 | [18] -0.07 | [11] 0.227 | [19] 0.225 | [12] -0.127 | [20] -0.068

NR2C1 (UniProt P13056)
inactive: [2] 0.071 | [3] 0.161 | [4] -0.073 | [6] -0.081 | [8] -0.178 | [9] -0.27 | [10] -0.119 | [17] -0.016 | [18] 0.112 | [19] 0.105 | [13] 0.206 | [20] -0.112 | [14] 0.068

NTAN1 (UniProt Q96AB6)
inactive: [2] 0.05 | [3] -0.049 | [4] -0.088 | [5] -0.001 | [6] 0.039 | [7] 0.02 | [8] 0 | [9] -0.05 | [10] 0.076 | [11] 0.06 | [12] -0.056 | [13] 0.026 | [14] 0.02 | [16] 0.07
